Earlier results in US4393178A, “Fast crystallizing polyester compositions” (priority 1979, dated 1983).
Structures can show the parent of a compound that is named as a salt. Where two headings read alike, the source gives them in different places. The name of at least one read-out is uncertain.

Conditions: acid of the salt, cited from earlier work

Compound	Dissociation constant (Table 4)	Dissociation constant (Table 3)
O=C([O-])c1ccc(C(=O)[O-])cc1.[Na+].[Na+] [Disodium terephthalate, reference compound]	30 × 10^-5	–
COC(=O)c1ccc(C(=O)[O-])cc1.[K+] [Potassium monomethyl terephthalate, reference compound]	30 × 10^-5	–
COC(=O)c1ccc(C(=O)[O-])cc1.[Na+] [Sodium monomethyl terephthalate, reference compound]	30 × 10^-5	–
O=[PH](O)c1ccccc1 [Sodium phenyl phosphinate]	–	3 × 10^-2
O=C(O)c1cccs1 [Sodium salt of 2-thiophencarboxylic acid]	–	33 × 10^-5
